From the RNAGym collection of RNA variant scans (doi:10.1126/science.aae0568) come the findings set out here.

Sequences and labels used below:
B1: tRNA (parent)
chain: GUUCCGUUGGCGUAAUGGUAACGCGUCUCCCUCCUAAGGAGAAGACUGCGGGUUCGAGUCCCGUACGGAACG

Variants at the background level are over-represented here. A value given as a limit tells only on which side of the number the result lay.

The variants in this series derive from B1. Nature of the series: yeast fitness relative to wild type (ratio to wild type); higher = fitter; tRNA-Arg(CCU), competitive growth, 37 C, YPD. An outline of the steps:
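Start and end populations of a pooled competition were compared by 100-nucleotide paired-end sequencing of gene amplicons. The Saccharomyces cerevisiae strains carried tRNA-Arg(CCU) gene variants at the native genomic locus, synthesised with a 3% per-site mutation rate at 69 sites, and competed in YPD at 37°C for 24 hours in six parallel replicates. Darwinian fitness relative to wild type was based on the change in genotype frequencies. Genotypes required ≥ 100 starting reads, and estimates < 0.5 were set to 0.5.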
For the variant C60U C61A G67A A69C, the yeast fitness is ≤ 0.5.

As for G12A C27G A36G, the yeast fitness is ≤ 0.5.

For the variant A45U C46A G63A, the yeast fitness was 1.06.

Regarding U32C C55A C62U, the yeast fitness is ≤ 0.5.

Turning to U19C C61U, the yeast fitness turned out to be 0.925.

For the variant A15G C24G U35G A40G, the yeast fitness is ≤ 0.5.

Turning to G10C C24U C34G A65C, the yeast fitness was ≤ 0.5.

With C4A A45C, the yeast fitness turned out to be 0.754.

For the variant U3A G6A A42C, the yeast fitness was ≤ 0.5.

As for G50A G52C C66U A70C, the yeast fitness was ≤ 0.5.

As for G10C C31A A40U C46U G68U, the yeast fitness was ≤ 0.5.

As for C11A G63A A65C, the yeast fitness was ≤ 0.5.

Regarding U7C C55G G63U A69C, the yeast fitness is ≤ 0.5.

With A15C U26A G48C U59C, the yeast fitness was ≤ 0.5.

Consider G6C G23C C24A C61U, for which the yeast fitness is ≤ 0.5.

For C11G A14U C34A A57G, the yeast fitness is 0.642.

Consider C24G C27U C33U G50C G68A, for which the yeast fitness was ≤ 0.5.

As to U7C G12C U32A G39A C49G G58C, the yeast fitness was ≤ 0.5.

Take C33G A45C U54C: the yeast fitness is ≤ 0.5.

With G25C C27G C60G G63C, the yeast fitness was ≤ 0.5.

Consider U16A U19C, for which the yeast fitness stood at 1.03.

Consider A43C G51C U59A, for which the yeast fitness was ≤ 0.5.

Regarding C5U U13C C24G U26C A37G U54G A69U, the yeast fitness is ≤ 0.5.

Regarding G9C A14C, the yeast fitness is ≤ 0.5.

Consider U2A U19A A20C U26A U64C, for which the yeast fitness was ≤ 0.5.

C31U G39C G52C: the yeast fitness was ≤ 0.5.

With C33U G41C G58C, the yeast fitness is ≤ 0.5.

For A42C G51A A70C, the yeast fitness came to 0.578.

In the case of U2A C5G C66U A70U, the yeast fitness is ≤ 0.5.

For the variant U2A C24U G56C A65G A70U, the yeast fitness is ≤ 0.5.

In the case of C11A G63A, the yeast fitness stood at 0.681.

Consider A21G C55U A69G, for which the yeast fitness was ≤ 0.5.

As to C5G C29G C55U U59G, the yeast fitness was ≤ 0.5.

Turning to U54A U64A C66G, the yeast fitness is ≤ 0.5.

As to C5G U35A A40G, the yeast fitness was ≤ 0.5.

For A37G A42U, the yeast fitness turned out to be 0.787.

Turning to G10C C29G G39A C55A, the yeast fitness is ≤ 0.5.

In the case of C4A C27A C55U, the yeast fitness was ≤ 0.5.

Turning to U2C C5G C29G G41C A57U, the yeast fitness is ≤ 0.5.

On to U8G C11G U32A G52C A65U G67C, for which the yeast fitness is ≤ 0.5.

Take C29A C31U A43C G44C A65U: the yeast fitness was ≤ 0.5.

In the case of G23A C27U G52C A65U G67C, the yeast fitness is ≤ 0.5.

With C4G A14C G48C A69U A70G, the yeast fitness was ≤ 0.5.

Regarding U26A C33A A45C, the yeast fitness came to 0.55.

Turning to G6A U13A A20G A21G A65C, the yeast fitness is ≤ 0.5.

Take C31U C33G A36G A45U U59G A69G: the yeast fitness is ≤ 0.5.

As for C22G C30G G68A, the yeast fitness was ≤ 0.5.

For G25U G44C G51A G67C G68A, the yeast fitness is ≤ 0.5.

Regarding A37C A43C C66A, the yeast fitness was ≤ 0.5.

As for C5G C34U A37G C62G, the yeast fitness was ≤ 0.5.

Turning to G12A U19A C31G C34U A57G, the yeast fitness is ≤ 0.5.

Take C30U U32A A36U A37U C61G C66U A69U: the yeast fitness was ≤ 0.5.

C11A A20G G56A: the yeast fitness is ≤ 0.5.

For A21G C29U C49A, the yeast fitness is ≤ 0.5.

Consider C11G U28C U47C C60A G67A, for which the yeast fitness is ≤ 0.5.

For C11U C24G A57G, the yeast fitness is ≤ 0.5.

Consider U7G A42C G48A G50C A69C, for which the yeast fitness was ≤ 0.5.

As for A40G U47C U53C C55A A57G, the yeast fitness was ≤ 0.5.

For U13A A40G G56A A57U G68A, the yeast fitness is ≤ 0.5.

As for G10C A20U A57U, the yeast fitness is ≤ 0.5.

As for G9A C11G C24G G41A A69U, the yeast fitness is ≤ 0.5.

Consider U32A C49A G68A, for which the yeast fitness was ≤ 0.5.

As for A15U G63C C66G, the yeast fitness was ≤ 0.5.

In the case of U7G C11G C34U G41A A65C C66U, the yeast fitness is ≤ 0.5.

Take C34G A37C C62U C66A: the yeast fitness was ≤ 0.5.

For U8C G50A A70U, the yeast fitness came out at 0.736.

Take C5A A42C U47A C49A G51U: the yeast fitness was ≤ 0.5.

As to C5G G12C A20U C24G, the yeast fitness was ≤ 0.5.

For G18A A37G, the yeast fitness was 0.547.

For the variant A14U G38C C46A, the yeast fitness came out at 0.551.

For A36U G50C A69C, the yeast fitness was ≤ 0.5.

Regarding U26A C33U U53C, the yeast fitness is 0.54.

Turning to G6A A20C U59A A69U, the yeast fitness was ≤ 0.5.

As for C4A A21U A37C A45U G58A, the yeast fitness was ≤ 0.5.

Take G10A G58A: the yeast fitness came out at 0.767.

A21U U35C G51C: the yeast fitness is ≤ 0.5.

On to A14G C34G A43C G58U A65U, for which the yeast fitness was ≤ 0.5.

C5G A15C A40G G52C C55U: the yeast fitness was ≤ 0.5.

C30U G52A: the yeast fitness was determined as 0.785.

Turning to C4G A21C C27A U28G G58A G67C, the yeast fitness was ≤ 0.5.

Regarding C5G C22U A36G C66G, the yeast fitness was ≤ 0.5.

On to U16A C24G C49G U53C, for which the yeast fitness was ≤ 0.5.

As to A36C C46G, the yeast fitness worked out at 0.543.

For the variant U7C C31G C34G A42U C66A, the yeast fitness was ≤ 0.5.

C4G C5U A43G: the yeast fitness was ≤ 0.5.

In the case of C4A C49U C55A, the yeast fitness is ≤ 0.5.

As for C24U C31U C49U A70C, the yeast fitness came out at 0.643.

In the case of U8C G25U C29A G51C, the yeast fitness is ≤ 0.5.

Take G10C U19A A37C: the yeast fitness is 0.502.

Regarding C4U G10C G48C, the yeast fitness was ≤ 0.5.

For G17A U19A A21C G44C C61A G67A, the yeast fitness is ≤ 0.5.

On to A20G G48C C49G C55U A57C A65G A70C, for which the yeast fitness is ≤ 0.5.

In the case of U19C A43G G44C A45C C66U, the yeast fitness was 0.589.

Take U8C C11G U13C A69C: the yeast fitness is ≤ 0.5.

G9C C31G A40C A70U: the yeast fitness was ≤ 0.5.

In the case of U3C C4U A14U, the yeast fitness is ≤ 0.5.

Consider C27A A45U G67C, for which the yeast fitness is ≤ 0.5.

With C29G U35C C55G A57G, the yeast fitness is ≤ 0.5.

Consider A20G C22U C24U G56A C66G, for which the yeast fitness is ≤ 0.5.

For the variant C4G G39A A57U G67C, the yeast fitness was ≤ 0.5.

As to G38C U54A C62U, the yeast fitness was ≤ 0.5.

U26C C27G C33G A37U G41A A57G C62G: the yeast fitness was ≤ 0.5.

With G39A G52C, the yeast fitness turned out to be 0.612.

For G18C C29G C34U G56U G67A A70C, the yeast fitness is ≤ 0.5.

For the variant G10A U64C A69C, the yeast fitness was ≤ 0.5.

On to A21G C62G A65U, for which the yeast fitness was ≤ 0.5.

For C5U A15G C30A C33G A45U U59C, the yeast fitness is ≤ 0.5.

Take C5A U8G C27U A45G U53C: the yeast fitness was ≤ 0.5.

Regarding C4A G18A A20C U26G C27U, the yeast fitness was ≤ 0.5.

As to C22G C24U A37C G51C C55U, the yeast fitness was ≤ 0.5.

For the variant G17C U28A C30A C31A A57G, the yeast fitness is ≤ 0.5.

For the variant G9A U13A C33U G50A, the yeast fitness is ≤ 0.5.

As for C30G C61U G68C, the yeast fitness is ≤ 0.5.

For G6A U53C A57C A65U, the yeast fitness is ≤ 0.5.

Take C11A C29G G44A G56C C62A G67C: the yeast fitness is ≤ 0.5.

With A15U C24G A42C C62U, the yeast fitness was ≤ 0.5.

For G6A C22U A43U G48C, the yeast fitness is ≤ 0.5.

In the case of U19C A36C G41A G51C G68A, the yeast fitness is ≤ 0.5.

As to A14U U16G U19A A42G, the yeast fitness came to 0.512.

A15C G38A U47A C55G C61U: the yeast fitness was ≤ 0.5.

As to G6C C24U C49U G56C A65U G67A, the yeast fitness is ≤ 0.5.

On to A14U A21C G41A, for which the yeast fitness is ≤ 0.5.

Turning to C29G C60U C61U C66G, the yeast fitness is ≤ 0.5.

A20U G67C G68C: the yeast fitness is ≤ 0.5.

In the case of G12A A37G G39C C62A, the yeast fitness was ≤ 0.5.

Regarding C5U A20C A21U U53C U64A, the yeast fitness was ≤ 0.5.

Turning to U2C A14G A57U C62U, the yeast fitness was ≤ 0.5.

With C4G C22U C33U, the yeast fitness is ≤ 0.5.

For A14G A40U A42C U53A, the yeast fitness was ≤ 0.5.

For the variant C29A A36G G48A C66U, the yeast fitness was ≤ 0.5.

On to C29G G50A C55G C60G, for which the yeast fitness is ≤ 0.5.

With U2A C5U A69C, the yeast fitness was 0.687.

G51A A57U A65U A70U: the yeast fitness is ≤ 0.5.

Consider C24G C46A, for which the yeast fitness was 0.937.

As to C31U A42C U54A, the yeast fitness is ≤ 0.5.

As for G6C G18C A21G A40U C49U, the yeast fitness is ≤ 0.5.

As to U19G G58C G67C, the yeast fitness was 0.61.

On to U2G G9C G12A U32C A42C C46A A65U, for which the yeast fitness is ≤ 0.5.

Consider U3G C31A G41A, for which the yeast fitness was ≤ 0.5.

With C5A C34G A57G A65G C66U, the yeast fitness was ≤ 0.5.

As for A20G C29G A65U, the yeast fitness was ≤ 0.5.

With U7A U19G A21U G68U, the yeast fitness is ≤ 0.5.

Consider G6C C33G A70G, for which the yeast fitness was ≤ 0.5.

For C30U G48A G51C, the yeast fitness was ≤ 0.5.

For U13A G63C G67C A69U, the yeast fitness is ≤ 0.5.

For the variant G10A C11G U26A U35A G48C, the yeast fitness was ≤ 0.5.

Regarding U3C U7C A37U C60G, the yeast fitness was ≤ 0.5.

C4U G25A C66U: the yeast fitness is 0.75.

As to C60U G67A, the yeast fitness came out at 0.721.

Take C4U A15U C34G A45U U53A: the yeast fitness was ≤ 0.5.

In the case of U19A C22U G67U, the yeast fitness was ≤ 0.5.

Consider U2C C5A C29G G48A A69U, for which the yeast fitness was ≤ 0.5.

As to C22U C30U U47A, the yeast fitness was ≤ 0.5.

In the case of U8C A15C U32C A69C, the yeast fitness is ≤ 0.5.

Turning to U3G C11U C62G, the yeast fitness was ≤ 0.5.

Turning to C5A A14G A15G C22G A37U, the yeast fitness was ≤ 0.5.

For C5G C29A C66U, the yeast fitness is ≤ 0.5.

C4U C5G A37U G44A A70G: the yeast fitness is ≤ 0.5.

A14U C31A C46A: the yeast fitness is ≤ 0.5.

On to G10A C29G U35G C61U, for which the yeast fitness was ≤ 0.5.

As to C11G G25A C60A C62U G68C, the yeast fitness is ≤ 0.5.

For A21G A37U A40U U64C G67A, the yeast fitness was ≤ 0.5.

As for A20C G44C G48A A69U, the yeast fitness was ≤ 0.5.

As to C24U G52C, the yeast fitness is 0.702.

As to C4U G6A U8G U26C U28A A65U, the yeast fitness was ≤ 0.5.

Turning to G23A G48A G58A, the yeast fitness was ≤ 0.5.

As to C4U G10C G48C G63C G67A, the yeast fitness is ≤ 0.5.
